Measurements reported in patent US7683035B1, “Method of stabilizing and/or isolating nucleic acids” (Qiagen, GmbH, priority 1999, dated 2010).

Assays:
HeLa RNA = test: Example 13: isolation of pure HeLa RNA by complexing, silica spin column; details: 25 μg HeLa RNA employed
[1] = test system: radiolabelled in vitro transcript of the mouse Evx gene in plasma; test: Example 4 Experiment B: sedimentation of RNA/cationic compound complexes from 1 ml plasma at about 4,500×g
[2] = test system: radiolabelled in vitro transcript of the mouse Evx gene in plasma; test: Example 4 Experiment A: isolation of radiolabelled RNA transcript from plasma, sedimentation at 10,000×g and silica spin column
[3] = substance concentration 9% (w/v)
[4] = substance concentration 15% (w/v)
[5] = 0 μg carrier, 4 volumes […] solution, 140 μl plasma

CCCCCCCCCC[N+](C)(C)CC[N+](C)(C)CCCCCCCCCC.O=S(=O)([O-])[O-] [Ethanediyl-1,2-bis(dimethyldecylammonium sulfate)]
Yield of HeLa RNA in the eluate (HeLa RNA; [3]): 25 µg | Yield of HeLa RNA in the eluate (HeLa RNA; [4]): 22.4 µg

CCCCCCCCCC[N+](C)(C)CC[N+](C)(C)CCCCCCCCCC.O=S([O-])([O-])=S [Ethanediyl-1,2-bis(dimethyldecylammonium thiosulfate)]
Yield of HeLa RNA in the eluate (HeLa RNA; substance concentration 1% (w/v)): 24.5 µg | Yield of HeLa RNA in the eluate (HeLa RNA; [3]): 25 µg | Yield of HeLa RNA in the eluate (HeLa RNA; [4]): 24 µg

tetradecyltrimethylammonium oxalate
Amount of radiolabelled RNA (%) in the sediment ([1]; 50 μg of carrier, centrifugation time 10 min): 22% | Amount of radiolabelled RNA (%) in the sediment ([1]; 50 μg of carrier, centrifugation time 20 min): 31% | Amount of radiolabelled RNA (%) in the sediment ([1]; 50 μg of carrier, centrifugation time 30 min): 36% | Amount of radiolabelled RNA (%) in the sediment ([1]; 50 μg of carrier, centrifugation time 40 min): 46% | Amount of radiolabelled RNA (%) in the sediment ([1]; 100 μg of carrier, centrifugation time 20 min): 79% | Amount of radiolabelled RNA (%) in the sediment ([1]; 100 μg of carrier, centrifugation time 40 min): 89% | Amount of radiolabelled RNA (%) in the sediment ([1]; 150 μg of carrier, centrifugation time 20 min): 84% | Amount of radiolabelled RNA (%) in the sediment ([1]; 150 μg of carrier, centrifugation time 40 min): 91% | RNA in eluate (%) [2, 5]: 3% | RNA in supernatant (%) [2, 5]: 83% | RNA in eluate (%) ([2]; 2.5 μg carrier): 13% | RNA in supernatant (%) ([2]; 2.5 μg carrier): 79% | RNA in eluate (%) ([2]; 5 μg carrier): 26% | RNA in supernatant (%) ([2]; 5 μg carrier): 63% | RNA in eluate (%) ([2]; 7.5 μg carrier): 39% | RNA in supernatant (%) ([2]; 7.5 μg carrier): 49% | RNA in eluate (%) ([2]; 10 μg carrier): 55% | RNA in supernatant (%) ([2]; 10 μg carrier): 30% | RNA in eluate (%) ([2]; 25 μg carrier): 75% | RNA in supernatant (%) ([2]; 25 μg carrier): 5%
